No constants are given. Whether binding was seen depends on the method and setting. Some binding calls cover weakened binding; strength is not graded here.
What was measured:
Test in all cases: peptide or protein array; total protein of cell lysate (1 mg in 1 mL) of MCF10A, MCF7, T47D or MDA-MB231 over a chip with 160 pY peptide probes (10 replicates, alanine controls), overnight at 4°C; bound GRB2 detected with rabbit anti-GRB2 and Alexa 647 secondary antibody; only the target purified
[1] = target: T1, IL1RL1_99 tyrosine phosphopeptide probe (UniProt Q01638)
T1 sequence (peptide, phosphotyrosine at the N-terminus (Y99)): YANVTI

Protein sequences, listed by entry. Tags and fused reporters are not part of them. Lines headed by an entry give the natural chain unless they say otherwise; changes in a name come on top.
UniProt Q01638: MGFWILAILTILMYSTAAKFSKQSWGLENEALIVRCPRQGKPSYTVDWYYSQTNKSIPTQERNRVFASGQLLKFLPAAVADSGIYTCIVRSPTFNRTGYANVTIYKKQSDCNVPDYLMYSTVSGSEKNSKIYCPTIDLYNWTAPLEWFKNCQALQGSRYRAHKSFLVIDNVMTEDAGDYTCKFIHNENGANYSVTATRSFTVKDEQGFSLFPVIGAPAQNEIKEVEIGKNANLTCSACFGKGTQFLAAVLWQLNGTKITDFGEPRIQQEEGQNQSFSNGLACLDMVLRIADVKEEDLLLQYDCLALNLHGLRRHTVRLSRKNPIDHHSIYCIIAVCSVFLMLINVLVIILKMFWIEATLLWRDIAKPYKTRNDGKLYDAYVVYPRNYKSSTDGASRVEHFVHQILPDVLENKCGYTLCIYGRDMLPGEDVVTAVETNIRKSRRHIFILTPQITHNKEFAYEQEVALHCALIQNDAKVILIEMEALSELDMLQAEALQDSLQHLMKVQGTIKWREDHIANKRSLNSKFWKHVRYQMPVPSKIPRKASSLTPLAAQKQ
UniProt P35568: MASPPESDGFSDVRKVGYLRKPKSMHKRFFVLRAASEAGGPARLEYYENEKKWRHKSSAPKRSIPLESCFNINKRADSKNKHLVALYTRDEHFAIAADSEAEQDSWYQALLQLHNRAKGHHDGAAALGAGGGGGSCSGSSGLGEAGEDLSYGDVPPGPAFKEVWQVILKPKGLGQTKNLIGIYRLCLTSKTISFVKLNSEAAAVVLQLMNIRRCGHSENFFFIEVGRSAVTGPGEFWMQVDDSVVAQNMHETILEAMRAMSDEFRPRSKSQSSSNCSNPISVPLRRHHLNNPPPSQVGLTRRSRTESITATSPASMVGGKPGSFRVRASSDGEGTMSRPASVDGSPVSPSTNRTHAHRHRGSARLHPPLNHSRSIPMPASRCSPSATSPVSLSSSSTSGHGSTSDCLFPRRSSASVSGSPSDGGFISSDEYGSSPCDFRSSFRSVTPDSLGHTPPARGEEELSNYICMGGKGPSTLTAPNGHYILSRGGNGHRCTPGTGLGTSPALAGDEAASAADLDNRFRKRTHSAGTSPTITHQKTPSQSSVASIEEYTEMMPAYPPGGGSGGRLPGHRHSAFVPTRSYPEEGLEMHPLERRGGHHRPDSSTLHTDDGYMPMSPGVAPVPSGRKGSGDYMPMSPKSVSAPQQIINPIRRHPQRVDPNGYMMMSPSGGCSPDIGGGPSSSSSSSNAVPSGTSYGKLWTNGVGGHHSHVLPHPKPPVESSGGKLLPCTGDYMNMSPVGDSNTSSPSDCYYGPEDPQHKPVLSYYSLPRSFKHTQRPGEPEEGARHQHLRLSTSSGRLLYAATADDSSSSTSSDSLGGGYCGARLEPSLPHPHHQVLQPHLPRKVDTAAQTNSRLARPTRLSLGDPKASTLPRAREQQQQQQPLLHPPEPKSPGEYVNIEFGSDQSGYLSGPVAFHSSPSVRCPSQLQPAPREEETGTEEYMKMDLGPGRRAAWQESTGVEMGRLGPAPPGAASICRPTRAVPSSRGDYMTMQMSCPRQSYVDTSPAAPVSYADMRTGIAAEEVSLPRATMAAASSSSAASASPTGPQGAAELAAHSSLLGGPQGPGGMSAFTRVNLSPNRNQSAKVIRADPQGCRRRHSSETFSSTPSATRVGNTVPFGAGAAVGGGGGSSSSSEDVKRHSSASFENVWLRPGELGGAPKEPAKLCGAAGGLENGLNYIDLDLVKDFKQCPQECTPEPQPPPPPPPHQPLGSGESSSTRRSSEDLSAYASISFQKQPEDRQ
UniProt P62993: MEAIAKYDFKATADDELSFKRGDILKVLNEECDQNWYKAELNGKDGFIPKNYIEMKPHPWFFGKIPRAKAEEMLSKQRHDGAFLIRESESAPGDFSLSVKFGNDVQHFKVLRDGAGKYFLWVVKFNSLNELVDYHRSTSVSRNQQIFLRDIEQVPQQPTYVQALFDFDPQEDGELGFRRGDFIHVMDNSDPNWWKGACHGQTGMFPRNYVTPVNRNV

[2] = target: T2, EPOR_489 tyrosine phosphopeptide probe (human)
T2 sequence (peptide, phosphotyrosine at the N-terminus (Y489)): YENSLI

[3] = target: T3, PTPN11_584 tyrosine phosphopeptide probe (human)
T3 sequence (peptide, phosphotyrosine at the N-terminus (Y584)): YENVGL

[4] = target: T4, IRS1_46 tyrosine phosphopeptide probe (human) (UniProt P35568)
T4 sequence (peptide, phosphotyrosine at the N-terminus (Y46)): YYENEK

[5] = target: T5, NTAL_136 tyrosine phosphopeptide probe (human)
T5 sequence (peptide, phosphotyrosine at the N-terminus (Y136)): YQNFSK

[6] = target: T6, SHC1_427 tyrosine phosphopeptide probe (human)
T6 sequence (peptide, phosphotyrosine at the N-terminus (Y427)): YVNIQN

[7] = target: T7, FRS2_196 tyrosine phosphopeptide probe (human)
T7 sequence (peptide, phosphotyrosine at the N-terminus (Y196)): YVNTTG

[8] = target: T8, FLT3_768 tyrosine phosphopeptide probe (human)
T8 sequence (peptide, phosphotyrosine at the N-terminus (Y768)): YENQKR

[9] = target: T9, LAX1_373 tyrosine phosphopeptide probe (human)
T9 sequence (peptide, phosphotyrosine at the N-terminus (Y373)): YENVLT

[10] = target: T10, NFAM1_220 tyrosine phosphopeptide probe (human)
T10 sequence (peptide, phosphotyrosine at the N-terminus (Y220)): YTALQR

[11] = target: T11, LAT_200 tyrosine phosphopeptide probe (human)
T11 sequence (peptide, phosphotyrosine at the N-terminus (Y200)): YVNVPE

[12] = target: T12, FLT1_1213 tyrosine phosphopeptide probe (human)
T12 sequence (peptide, phosphotyrosine at the N-terminus (Y1213)): YVNAFK

[13] = target: T13, LAX1_268 tyrosine phosphopeptide probe (human)
T13 sequence (peptide, phosphotyrosine at the N-terminus (Y268)): YVNMTG

[14] = target: T14, IRS1_896 tyrosine phosphopeptide probe (human) (UniProt P35568)
T14 sequence (peptide, phosphotyrosine at the N-terminus (Y896)): YVNIEF

[15] = target: T15, FAK1_925 tyrosine phosphopeptide probe (human)
T15 sequence (peptide, phosphotyrosine at the N-terminus (Y925)): YENVTG

[16] = target: T16, LAT_220 tyrosine phosphopeptide probe (human)
T16 sequence (peptide, phosphotyrosine at the N-terminus (Y220)): YVNVSQ

Measured: binding

GRB2 (endogenous, from cell lysates) (from UniProt P62993 1-217)
binds: all assays above

Reference: PMC3694890
